Measured values from the supplement of paper PMC6078165.
Values are relative to the signal before dosing, not to a vehicle control; the signal also falls without drug.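 Labels refer to human fibroblasts, largely primary: uterine (C12385, HUF), lung (H6013), bone (Hs27A), adrenal (HADF), skin (WS1), plus mammary HMF and breast cancer-associated Hs343T. Cancer lines are basal-like or mesenchymal-like triple-negative breast cancer. The paper counts as hits responses shifting over 3x the replicate standard deviation. The tissue of the other fibroblasts is not given here.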

Tested on: Hs578T
Assay: relative JC-1 red fluorescence (viability) vs pre-drug, coculture with fibroblast (fraction); higher = more viable cancer cells
Experimental: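 JC-1 labelled TNBC cells cocultured 1:1 (1,500 cells each) with CellTrace Violet stained primary or stromal fibroblasts in 384-well plates in FluoroBrite medium, treated with one of 42 anticancer drugs at 0.1, 1, 10 or 100 uM. JC-1 red fluorescence (mitochondrial integrity in cancer cells only) was read by plate reader every 8 h for 72 h. Values are normalised to each well's pre-drug value. The stock of one drug was tenfold lower, so its dose labels may be too high.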

O=NN(CCCl)C(=O)NC1CCCCC1 [Lomustine]
relative JC-1 red fluorescence
Conditions	8 h	16 h	24 h	32 h	40 h	48 h	56 h	64 h	72 h
0.1 µM	0.9219	0.838	0.788	0.748	0.673	0.631	0.606	0.56	0.547
1 µM	0.891	0.763	0.704	0.663	0.611	0.57	0.541	0.499	0.475
10 µM	0.883	0.803	0.756	0.715	0.663	0.623	0.6	0.557	0.554
100 µM	0.805	0.709	0.671	0.642	0.5988	0.5643	0.5612	0.531	0.526

relative JC-1 red fluorescence
Conditions	8 h	16 h	24 h	32 h	40 h	48 h	56 h	64 h	72 h
0.1 µM, coculture fibroblast: C12385	0.8004	0.7301	0.698	0.601	0.538	0.508	0.483	0.476	0.47
0.1 µM, coculture fibroblast: H6013	0.8398	0.82943	0.808	0.79672	0.776	0.771	0.758	0.753	0.73
0.1 µM, coculture fibroblast: H6019	0.798	0.732	0.711	0.61	0.572	0.542	0.515	0.495	0.469
0.1 µM, coculture fibroblast: H6076	0.866	0.812	0.785	0.778	0.743	0.754	0.745	0.749	0.751
0.1 µM, coculture fibroblast: H6231	0.867	0.8048	0.789	0.77	0.717	0.704	0.673	0.661	0.658
0.1 µM, coculture fibroblast: HADF	0.851	0.796	0.733	0.679	0.659	0.642	0.622	0.62	0.611
0.1 µM, coculture fibroblast: HCFa	0.802	0.7294	0.678	0.6225	0.568	0.542	0.523	0.515	0.493
0.1 µM, coculture fibroblast: HCPF	0.906	0.818	0.756	0.712	0.653	0.633	0.615	0.584	0.566
0.1 µM, coculture fibroblast: HHSteC	0.861	0.812	0.756	0.703	0.656	0.626	0.605	0.589	0.5695
0.1 µM, coculture fibroblast: HMF	0.8678	0.807	0.755	0.735	0.6699	0.6496	0.627	0.606	0.5955
0.1 µM, coculture fibroblast: HPFa	0.885	0.826	0.769	0.713	0.683	0.652	0.619	0.596	0.561
0.1 µM, coculture fibroblast: HUF	0.856	0.755	0.771	0.663	0.601	0.583	0.556	0.561	0.562
0.1 µM, coculture fibroblast: Hs27A	0.875	0.801	0.745	0.703	0.66	0.648	0.622	0.609	0.567
0.1 µM, coculture fibroblast: Hs343T	0.882	0.799	0.76	0.746	0.687	0.671	0.651	0.637	0.639
0.1 µM, coculture fibroblast: WS1	0.7798	0.71	0.691	0.595	0.547	0.531	0.504	0.509	0.513
1 µM, coculture fibroblast: C12385	0.831	0.728	0.6725	0.5805	0.5077	0.4753	0.447	0.435	0.426
1 µM, coculture fibroblast: H6013	0.8745	0.804	0.765	0.736	0.696	0.681	0.661	0.663	0.638
1 µM, coculture fibroblast: H6019	0.75	0.648	0.64	0.554	0.523	0.498	0.471	0.453	0.427
1 µM, coculture fibroblast: H6076	0.88	0.837	0.812	0.8066	0.785	0.797	0.782	0.789	0.787
1 µM, coculture fibroblast: H6231	0.912	0.83	0.739	0.696	0.631	0.599	0.546	0.517	0.489
1 µM, coculture fibroblast: HADF	0.874	0.774	0.7156	0.657	0.601	0.569	0.532	0.518	0.493
1 µM, coculture fibroblast: HCFa	0.847	0.76	0.694	0.64	0.576	0.553	0.528	0.51	0.474
1 µM, coculture fibroblast: HCPF	0.9036	0.8096	0.7619	0.726	0.682	0.653	0.636	0.599	0.582
1 µM, coculture fibroblast: HHSteC	0.8806	0.7942	0.741	0.6904	0.631	0.605	0.579	0.554	0.519
1 µM, coculture fibroblast: HMF	0.847	0.7597	0.704	0.682	0.624	0.6	0.561	0.542	0.528
1 µM, coculture fibroblast: HPFa	0.892	0.816	0.731	0.661	0.605	0.555	0.506	0.47	0.426
1 µM, coculture fibroblast: HUF	0.855	0.755	0.7	0.595	0.528	0.492	0.4546	0.4441	0.4356
1 µM, coculture fibroblast: Hs27A	0.887	0.8321	0.7661	0.7286	0.672	0.654	0.611	0.606	0.561
1 µM, coculture fibroblast: Hs343T	0.911	0.803	0.7287	0.7043	0.629	0.608	0.56	0.534	0.536
1 µM, coculture fibroblast: WS1	0.786	0.705	0.641	0.543	0.485	0.467	0.439	0.438	0.4374
10 µM, coculture fibroblast: C12385	0.798	0.7404	0.725	0.633	0.583	0.553	0.519	0.51	0.507
10 µM, coculture fibroblast: H6013	0.831	0.787	0.756	0.744	0.735	0.732	0.727	0.729	0.71
10 µM, coculture fibroblast: H6019	0.7934	0.711	0.691	0.602	0.57	0.545	0.526	0.513	0.491
10 µM, coculture fibroblast: H6076	0.874	0.783	0.749	0.7309	0.699	0.7035	0.696	0.7	0.705
10 µM, coculture fibroblast: H6231	0.903	0.832	0.765	0.7259	0.652	0.627	0.575	0.557	0.544
10 µM, coculture fibroblast: HADF	0.8375	0.79	0.739	0.701	0.679	0.657	0.631	0.618	0.591
10 µM, coculture fibroblast: HCFa	0.805	0.709	0.656	0.601	0.557	0.547	0.526	0.524	0.512
10 µM, coculture fibroblast: HCPF	0.899	0.834	0.808	0.788	0.736	0.7229	0.703	0.668	0.639
10 µM, coculture fibroblast: HHSteC	0.823	0.752	0.708	0.657	0.625	0.602	0.588	0.572	0.554
10 µM, coculture fibroblast: HMF	0.884	0.812	0.7626	0.72	0.663	0.631	0.598	0.577	0.559
10 µM, coculture fibroblast: HPFa	0.8829	0.813	0.777	0.727	0.708	0.683	0.656	0.636	0.6
10 µM, coculture fibroblast: HUF	0.817	0.72	0.716	0.627	0.572	0.545	0.523	0.527	0.524
10 µM, coculture fibroblast: Hs27A	0.877	0.797	0.757	0.716	0.668	0.665	0.637	0.627	0.578
10 µM, coculture fibroblast: Hs343T	0.9248	0.837	0.783	0.757	0.683	0.664	0.627	0.599	0.59
10 µM, coculture fibroblast: WS1	0.8016	0.693	0.656	0.552	0.497	0.479	0.444	0.437	0.424
100 µM, coculture fibroblast: C12385	0.727	0.641	0.578	0.491	0.436	0.403	0.38	0.364	0.357
100 µM, coculture fibroblast: H6013	0.7394	0.678	0.653	0.634	0.625	0.618	0.607	0.617	0.6
100 µM, coculture fibroblast: H6019	0.702	0.612	0.601	0.507	0.479	0.471	0.46	0.455	0.443
100 µM, coculture fibroblast: H6076	0.745	0.666	0.67979	0.678	0.676	0.701	0.71	0.72	0.738
100 µM, coculture fibroblast: H6231	0.828	0.745	0.699	0.663	0.614	0.593	0.555	0.534	0.531
100 µM, coculture fibroblast: HADF	0.734	0.681	0.675	0.648	0.639	0.626	0.607	0.607	0.582
100 µM, coculture fibroblast: HCFa	0.757	0.72	0.6948	0.6607	0.62	0.608	0.589	0.589	0.569
100 µM, coculture fibroblast: HCPF	0.805	0.726	0.6884	0.6611	0.615	0.596	0.593	0.549	0.534
100 µM, coculture fibroblast: HHSteC	0.7824	0.738	0.709	0.682	0.658	0.635	0.622	0.611	0.594
100 µM, coculture fibroblast: HMF	0.734	0.644	0.636	0.636	0.611	0.601	0.595	0.583	0.573
100 µM, coculture fibroblast: HPFa	0.78158	0.703	0.657	0.606	0.571	0.548	0.515	0.499	0.469
100 µM, coculture fibroblast: HUF	0.752	0.649	0.646	0.562	0.513	0.489	0.464	0.459	0.458
100 µM, coculture fibroblast: Hs27A	0.8515	0.774	0.739	0.705	0.656	0.642	0.601	0.597	0.546
100 µM, coculture fibroblast: Hs343T	0.739	0.613	0.616	0.615	0.571	0.566	0.555	0.541	0.54192
100 µM, coculture fibroblast: WS1	0.723	0.675	0.69	0.599	0.542	0.535	0.506	0.501	0.492
